Source: patent US20110177615A1
Results are given in words; binding and its absence hold for the method and conditions named. Some entries that bind do so weakly or less than the wild type. Where a sequence is shown, tags or fusion partners need not be part of it.

Protein sequences, listed by entry. Tags and fused reporters are not part of them. Residues count along the entry.
UniProt P01012, residues 2-386: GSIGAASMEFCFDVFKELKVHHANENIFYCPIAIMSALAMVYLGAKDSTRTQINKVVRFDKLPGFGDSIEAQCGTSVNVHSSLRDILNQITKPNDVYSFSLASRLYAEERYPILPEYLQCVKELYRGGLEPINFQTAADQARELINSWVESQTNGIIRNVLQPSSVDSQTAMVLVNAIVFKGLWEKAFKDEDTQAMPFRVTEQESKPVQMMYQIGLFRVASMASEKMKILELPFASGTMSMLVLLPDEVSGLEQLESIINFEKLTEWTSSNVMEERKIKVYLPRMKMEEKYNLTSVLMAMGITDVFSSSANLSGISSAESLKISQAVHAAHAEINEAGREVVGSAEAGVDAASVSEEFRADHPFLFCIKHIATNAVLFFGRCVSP

Target: ovalbumin (UniProt P01012)
Assay: ELISA, ovalbumin coated on plate, dilutions of antibody preparation, absorbance at 414 nm

B1: recombinant ovalbumin fusion antibody with fusion partner comprising … (SEQ ID 2) (scFv)
scFv: DYKDIVMTQSPASLAVSLGQRATISCRASQSVSTSSYSYMHWYQQKPGQPPKLLIKYASNLESGVPARFSGSGSGTDFTLNIHPVVEEDTATYYCQHSWEIPYTFGGGTKLEIKRGGGGSGGGGSEVKLMESGGGLVKPGGSLKLSCAASGFTFSSYAMSWVRQTPEKRLEWVATIRSGGSYTYYPDSVKGRFTISRDNAKNTLYLQMSSLRSEDTAMYYCARHRMITTAGDAMDYWGQGTSVTVSAASGAGGSGGAPASNRCSQGSCWNLQHHHHHH
binding: binds
